Values from PubChem BioAssay AID1259425 (University of Nebraska Medical Center, 2018)
Assay: 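Compare each knockdown with KSR1 silencing using changes in marker transcripts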 (primary screen). Cell system: HCT116 human colon cancer cells. Reagents: siRNA pool against human genes, 50 nM siRNA. Measurement: 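After 50 nM siRNA pool, branched-DNA assay measures six marker transcripts per well, minus blank, normalised to the geometric mean of two housekeeping transcripts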. Direction: BNIP3L mRNA: higher = more BNIP3L transcript after knockdown.
Shown is a random part of about 14,000 reagents tested. Further read-outs or replicates are left out here. Not stated in the record: the time to read-out.

GMDS (GeneID 2762) → BNIP3L mRNA, set 1: 0.0975
GCNT4 (GeneID 51301) → BNIP3L mRNA, set 1: 0.0787
SRSF5 (GeneID 6430) → BNIP3L mRNA, set 1: 0.0796
PIGL (GeneID 9487) → BNIP3L mRNA, set 1: 0.16
GLG1 (GeneID 2734) → BNIP3L mRNA, set 1: 0.0641
RXRB (GeneID 6257) → BNIP3L mRNA, set 1: 0.0451
ENPP5 (GeneID 59084) → BNIP3L mRNA, set 1: 0.113
GFUS (GeneID 7264) → BNIP3L mRNA, set 1: 0.122
TRAPPC3 (GeneID 27095) → BNIP3L mRNA, set 1: 0.116
GTF3C5 (GeneID 9328) → BNIP3L mRNA, set 1: 0.0711
GTPBP2 (GeneID 54676) → BNIP3L mRNA, set 1: 0.139
MC3R (GeneID 4159) → BNIP3L mRNA, set 1: 0.0812
PVR (GeneID 5817) → BNIP3L mRNA, set 1: 0.0931
H6PD (GeneID 9563) → BNIP3L mRNA, set 1: 0.0701
TMED3 (GeneID 23423) → BNIP3L mRNA, set 1: 0.479
TYR (GeneID 7299) → BNIP3L mRNA, set 1: 0.128
TMEM187 (GeneID 8269) → BNIP3L mRNA, set 1: 0.0718
AKR1B10 (GeneID 57016) → BNIP3L mRNA, set 1: 0.115
MED1 (GeneID 5469) → BNIP3L mRNA, set 1: 0.0735
CENPM (GeneID 79019) → BNIP3L mRNA, set 1: 0.114
SORCS3 (GeneID 22986) → BNIP3L mRNA, set 1: 0.176
OAT (GeneID 4942) → BNIP3L mRNA, set 1: 0.116
PFKFB3 (GeneID 5209) → BNIP3L mRNA, set 1: 0.106
CCDC174 (GeneID 51244) → BNIP3L mRNA, set 1: 0.116
ELL (GeneID 8178) → BNIP3L mRNA, set 1: 0.0864
FZD2 (GeneID 2535) → BNIP3L mRNA, set 1: 0.132
GYS1 (GeneID 2997) → BNIP3L mRNA, set 1: 0.0849
STBD1 (GeneID 8987) → BNIP3L mRNA, set 1: 0.142

2 consecutive entries already listed, for reference:
TMED3 (GeneID 23423) → BNIP3L mRNA, set 1: 0.479
TYR (GeneID 7299) → BNIP3L mRNA, set 1: 0.128
